Data as given in PubChem BioAssay AID1259425 (University of Nebraska Medical Center, 2018).

- Test: 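Find knockdowns that reproduce the gene expression pattern seen when KSR1 is lost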 (primary screen)
- System: HCT116 human colon cancer cells
- Knock-down reagent: siRNA pool against human genes, 50 nM siRNA
- Detection: 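mRNA of six signature genes measured together by branched-DNA assay after 50 nM siRNA pool, blank removed, divided by geometric mean of two housekeeping genes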
- Reading the numbers: BNIP3L mRNA: higher = more BNIP3L transcript after knockdown; NDRG1 mRNA: higher = more NDRG1 transcript after knockdown; BNIP3 mRNA: higher = more BNIP3 transcript after knockdown; ALDOC mRNA: higher = more ALDOC transcript after knockdown; ACSL5 mRNA: higher = more ACSL5 transcript after knockdown
The deposit covers about 14,000 reagents; below is a part drawn at random. Reagent sequences are not shown. The record does not give: the time to read-out.

| gene | BNIP3L mRNA, set 1 | NDRG1 mRNA, set 1 | BNIP3 mRNA, set 1 | ALDOC mRNA, set 1 | ACSL5 mRNA, set 1 |
| --- | --- | --- | --- | --- | --- |
| FZD6 | 0.314 | 0.495 | 0.855 | 0.0871 | 0.166 |
| GNS | 0.105 | 0.225 | 0.201 | 0.0315 | 0.165 |
| PRKCH | 0.346 | 0.543 | 0.296 | 0.0055 | 1.07 |
| JMJD7-PLA2G4B | 0.1 | 0.144 | 0.239 | 0.0242 | 0.244 |
| NDUFAF5 | 0.124 | 0.226 | 0.312 | 0.0586 | 0.185 |
| ARFGEF1 | 0.166 | 0.382 | 0.321 | 0.0329 | 0.222 |
| CYP2F1 | 0.137 | 0.101 | 0.335 | 0.036 | 0.0756 |
| CNGA3 | 0.0758 | 0.0547 | 0.329 | 0.0232 | 0.0828 |
| OTX1 | 0.122 | 0.123 | 0.265 | 0.00834 | 0.268 |
| AZGP1 | 0.0716 | 0.378 | 0.271 | 0.0317 | 0.251 |
| SYNPO2L | 0.125 | 0.103 | 0.298 | 0.0454 | 0.286 |
| SERPINF1 | 0.148 | 0.392 | 0.378 | 0.044 | 0.274 |
| OGFOD1 | 0.117 | 0.361 | 0.362 | 0.0266 | 0.12 |
| TAT | 0.112 | 0.146 | 0.232 | 0.0253 | 0.206 |
| TAF3 | 0.199 | 0.264 | 0.501 | 0.0766 | 0.551 |
| CYTH2 | 0.138 | 0.132 | 0.41 | 0.048 | 0.197 |
| NRP2 | 0.0857 | 0.213 | 0.264 | 0.0361 | 0.137 |
| SMARCD1 | 0.12 | 0.17 | 0.412 | 0.0156 | 0.108 |
| FEZF2 | 0.141 | 0.0662 | 0.154 | 0.0275 | 0.104 |
| MAB21L1 | 0.0608 | 0.132 | 0.436 | 0.0112 | 0.104 |
| GCSH | 0.0497 | 0.0684 | 0.321 | 0.0209 | 0.166 |
| TEDC2 | 0.249 | 0.188 | 0.283 | 0.101 | 0.118 |
| ZNF630 | 0.139 | 0.178 | 0.29 | 0.0339 | 0.229 |
| LIN28A | 0.209 | 0.146 | 0.351 | 0.0928 | 0.121 |
| HNRNPUL1 | 0.247 | 0.328 | 0.316 | 0.0238 | 0.409 |

4 of these entries, set out differently:
GNS
- BNIP3L mRNA, set 1: 0.105
- NDRG1 mRNA, set 1: 0.225
- BNIP3 mRNA, set 1: 0.201
- ALDOC mRNA, set 1: 0.0315
- ACSL5 mRNA, set 1: 0.165

PRKCH
- BNIP3L mRNA, set 1: 0.346
- NDRG1 mRNA, set 1: 0.543
- BNIP3 mRNA, set 1: 0.296
- ALDOC mRNA, set 1: 0.0055
- ACSL5 mRNA, set 1: 1.07

JMJD7-PLA2G4B
- BNIP3L mRNA, set 1: 0.1
- NDRG1 mRNA, set 1: 0.144
- BNIP3 mRNA, set 1: 0.239
- ALDOC mRNA, set 1: 0.0242
- ACSL5 mRNA, set 1: 0.244

NDUFAF5
- BNIP3L mRNA, set 1: 0.124
- NDRG1 mRNA, set 1: 0.226
- BNIP3 mRNA, set 1: 0.312
- ALDOC mRNA, set 1: 0.0586
- ACSL5 mRNA, set 1: 0.185
